Holding throughout (test): DAPPL (digital affinity profiling via proximity ligation, sequencing)
Holding throughout (settings): 10 mM Tris-HCl pH 7.5, 50 mM NaCl, 1 mM DTT, 4% glycerol, room temperature, 30 min; GST-TFs on glutathione beads, 16-mer random dsDNA library, 0.1% …; high values mean tight binding; double strand, one strand shown; scale: fold enrichment (6-mer frequency, TF over GST control)

The target of one assay is T1, ELK1 (UniProt P19419).
T1 sequence: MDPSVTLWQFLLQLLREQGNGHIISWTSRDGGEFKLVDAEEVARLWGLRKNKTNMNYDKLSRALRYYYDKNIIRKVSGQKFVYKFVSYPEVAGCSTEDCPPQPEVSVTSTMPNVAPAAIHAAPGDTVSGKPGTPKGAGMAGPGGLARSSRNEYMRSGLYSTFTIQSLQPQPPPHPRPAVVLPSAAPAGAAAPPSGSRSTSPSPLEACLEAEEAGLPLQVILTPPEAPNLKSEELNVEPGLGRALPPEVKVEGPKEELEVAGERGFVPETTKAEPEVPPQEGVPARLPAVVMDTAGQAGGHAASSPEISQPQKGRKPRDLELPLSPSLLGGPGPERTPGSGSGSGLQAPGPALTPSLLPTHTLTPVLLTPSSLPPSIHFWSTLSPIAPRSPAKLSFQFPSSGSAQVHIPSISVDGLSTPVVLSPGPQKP

In another assay the target is T2, ELK3 (UniProt P41970).
T2 sequence: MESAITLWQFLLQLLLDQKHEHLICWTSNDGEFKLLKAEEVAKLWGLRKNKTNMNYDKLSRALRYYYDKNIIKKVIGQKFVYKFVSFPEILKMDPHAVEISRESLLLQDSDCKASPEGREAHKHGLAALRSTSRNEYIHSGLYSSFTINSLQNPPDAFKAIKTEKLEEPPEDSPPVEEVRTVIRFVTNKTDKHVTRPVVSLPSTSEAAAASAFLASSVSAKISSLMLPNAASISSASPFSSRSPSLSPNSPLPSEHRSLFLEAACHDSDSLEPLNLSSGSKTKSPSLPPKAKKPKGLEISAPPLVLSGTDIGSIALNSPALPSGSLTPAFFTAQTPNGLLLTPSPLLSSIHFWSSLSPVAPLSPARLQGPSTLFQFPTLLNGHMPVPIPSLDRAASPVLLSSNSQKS

Another assay addresses T3, SPIC (UniProt Q8N5J4).
T3 sequence: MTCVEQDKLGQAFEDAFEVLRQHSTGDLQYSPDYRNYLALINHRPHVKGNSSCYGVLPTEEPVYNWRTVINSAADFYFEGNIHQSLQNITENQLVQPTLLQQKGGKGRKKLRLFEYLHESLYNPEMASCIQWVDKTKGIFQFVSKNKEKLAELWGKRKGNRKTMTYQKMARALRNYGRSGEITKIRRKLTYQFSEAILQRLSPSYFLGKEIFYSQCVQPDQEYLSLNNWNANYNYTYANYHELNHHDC

A further assay concerns the target T4, ETS2 (UniProt P15036).
T4 sequence: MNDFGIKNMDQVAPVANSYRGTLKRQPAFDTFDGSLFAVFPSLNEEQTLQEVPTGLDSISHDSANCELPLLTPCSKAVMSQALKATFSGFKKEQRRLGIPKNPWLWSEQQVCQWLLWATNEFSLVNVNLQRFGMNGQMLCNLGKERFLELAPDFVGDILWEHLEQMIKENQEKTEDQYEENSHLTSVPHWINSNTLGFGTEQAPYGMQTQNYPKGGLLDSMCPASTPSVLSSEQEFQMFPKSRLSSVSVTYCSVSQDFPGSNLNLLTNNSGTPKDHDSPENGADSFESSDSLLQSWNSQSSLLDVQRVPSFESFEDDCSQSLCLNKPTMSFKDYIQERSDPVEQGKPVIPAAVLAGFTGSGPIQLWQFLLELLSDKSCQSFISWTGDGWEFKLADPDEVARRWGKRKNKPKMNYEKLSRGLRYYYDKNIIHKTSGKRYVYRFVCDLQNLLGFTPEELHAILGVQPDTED

The next assay deals with T5, ETV3 (UniProt P41162-2).
T5 sequence: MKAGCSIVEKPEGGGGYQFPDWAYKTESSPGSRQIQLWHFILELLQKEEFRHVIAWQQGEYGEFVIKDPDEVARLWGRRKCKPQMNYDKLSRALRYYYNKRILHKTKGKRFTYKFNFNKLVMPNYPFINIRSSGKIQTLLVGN

The list shows a part of the results, in another mix than the full data. At the low end of the ranking the order means little.

As for GGCTGA, the binding signal in the assay with ELK1 is 0.714; with ELK3, 0.837; with SPIC, 0.811; in the assay with ETS2, 0.858; in the assay with ETV3, 0.692.
For CCCAGG, the binding signal with ELK1 was found to be 0.749; with ELK3 it was 0.709; with SPIC, 0.735; with ETS2, 0.695; with ETV3, 0.758.
Regarding GGACCA, the binding signal in the assay with ELK1 is 0.755; with ELK3, 0.82; with SPIC, 0.759; with ETS2 it was 0.763; in the assay with ETV3, 0.759.
For GAGGGA, the binding signal in the assay with ELK1 is 0.513; with ELK3, 0.438; with SPIC, 0.543; with ETS2, 0.491; in the assay with ETV3, 0.485.
Take CCATGT: the binding signal with ELK1 turned out to be 0.756; with ELK3, 0.964; with SPIC it was 0.823; with ETS2, 0.797; with ETV3, 0.858.
On to CAGTGT, for which the binding signal in the assay with ELK1 was 0.671; with ELK3 it was 0.656; with SPIC, 0.734; with ETS2, 0.712; with ETV3, 0.618.
Take GGCAAC: the binding signal in the assay with ELK1 is 0.925; with ELK3 it was 0.839; with SPIC it was 0.869; in the assay with ETS2, 0.902; in the assay with ETV3 it was 0.857.
For GGACAA, the binding signal is 0.791 in the assay with ELK1; 0.83 with ELK3; 0.785 with SPIC; 0.82 with ETS2; 0.84 with ETV3.
As for GACGTC, the binding signal in the assay with ELK1 was 0.825; in the assay with ELK3, 0.911; with SPIC it was 0.7; in the assay with ETS2 it was 0.844; with ETV3, 0.808.
In the same order, the values of GGACCC are 0.791, 0.86, 0.828, 0.781 and 0.866.
In the same order, the values of AGCAGT are 0.719, 0.803, 0.69, 0.717 and 0.711.
Take TCAGGG: the binding signal is 0.921 with ELK1; 0.653 in the assay with ELK3; 0.812 with SPIC; 0.908 with ETS2; 0.753 with ETV3.
GTGACA: the binding signal with ELK1 was 0.794; in the assay with ELK3, 0.769; with SPIC, 0.736; with ETS2, 0.809; in the assay with ETV3 it was 0.757.
Take GACGCA: the binding signal in the assay with ELK1 came out at 0.583; with ELK3, 0.473; with SPIC, 0.638; with ETS2, 0.583; with ETV3, 0.547.
Consider GGTTGA, for which the binding signal in the assay with ELK1 came out at 0.737; with ELK3 it was 0.782; with SPIC, 0.838; in the assay with ETS2, 0.762; in the assay with ETV3 it was 0.753.
For the sequence GGGCGT, the binding signal with ELK1 came to 0.54; in the assay with ELK3 it was 0.528; with SPIC it was 0.466; in the assay with ETS2, 0.487; with ETV3, 0.466.
For GCCGGC, the binding signal in the assay with ELK1 was 0.835; with ELK3, 0.844; in the assay with SPIC it was 0.866; with ETS2, 0.832; in the assay with ETV3 it was 0.795.
Consider GGCGAT, for which the binding signal with ELK1 was 0.942; with ELK3, 0.678; with SPIC, 0.732; with ETS2, 0.774; in the assay with ETV3 it was 0.9.
Regarding CTCGGA, the binding signal in the assay with ELK1 worked out at 0.882; in the assay with ELK3, 0.801; with SPIC, 0.813; with ETS2, 0.803; with ETV3, 0.832.
For AGGCCG, the binding signal in the assay with ELK1 was found to be 0.49; in the assay with ELK3, 0.497; with SPIC it was 0.473; with ETS2, 0.5; in the assay with ETV3 it was 0.496.
TCGGCC: the binding signal was found to be 0.753 with ELK1; 0.671 in the assay with ELK3; 0.664 with SPIC; 0.702 with ETS2; 0.743 in the assay with ETV3.
For ATCGGC, the binding signal with ELK1 came to 0.654; with ELK3, 0.682; with SPIC, 0.725; in the assay with ETS2, 0.61; in the assay with ETV3, 0.644.
As to CAAGTG, the binding signal in the assay with ELK1 came out at 0.685; with ELK3, 0.8; with SPIC, 0.786; in the assay with ETS2 it was 0.75; with ETV3 it was 0.774.
Take TCAGGA: the binding signal with ELK1 is 0.792; in the assay with ELK3 it was 0.808; in the assay with SPIC, 0.841; with ETS2, 0.851; with ETV3, 0.823.
As to AACGAG, the binding signal with ELK1 was 0.817; in the assay with ELK3, 0.84; in the assay with SPIC, 0.812; in the assay with ETS2 it was 0.831; in the assay with ETV3 it was 0.809.
On the same counts, the results for GGAGAT are 0.295, 0.28, 0.357, 0.303 and 0.307.
Regarding AGCGTT, the binding signal was 0.84 with ELK1; 0.941 in the assay with ELK3; 0.965 with SPIC; 0.943 with ETS2; 0.938 with ETV3.
With GTACCG, the binding signal with ELK1 amounted to 0.733; with ELK3, 0.692; in the assay with SPIC, 0.712; in the assay with ETS2 it was 0.717; in the assay with ETV3 it was 0.722.
Regarding GGAGAA, the binding signal is 0.305 with ELK1; 0.363 with ELK3; 0.378 in the assay with SPIC; 0.32 in the assay with ETS2; 0.334 with ETV3.
Take TGAGTA: the binding signal in the assay with ELK1 came to 0.467; in the assay with ELK3, 0.444; with SPIC, 0.428; with ETS2 it was 0.426; in the assay with ETV3, 0.432.

(Values after PMC7862700.)
